Measurements: patent USRE39192E1, “Supplemented and unsupplemented tissue sealants, methods of their production and use” (American National Red Cross, priority 1990, dated 2006)

Test: Release of 5-FU from FG clots

**Q.** Which “sustained delivery longer than with the drug in aqueous form” value does the source give for `O=c1[nH]cc(F)c(=O)[nH]1` [5-FU, 5-fluorouracil] here?
**A.** at least 10 times

**Q.** What about the “time point of peak levels” value (all cases) of the same compound?
**A.** 5 h

**Q.** What about the “increase of total duration of delivery, solid vs liquid form” value (greater amounts of solid 5-FU) of the same compound?
**A.** tripling

**Q.** And the “increase in the duration of delivery of a given concentration” value (greater amounts of solid 5-FU vs liquid form)?
**A.** 10 fold
